Results taken from PubChem BioAssay AID504467 (National Center for Advancing Translational Sciences (NCATS), 2011).
In all, about 330,000 compounds went through this assay and about 7,700 (2.3%) were called active. This list was built around the results that the source calls inconclusive (neither active nor inactive); the mix of calls is not that of the screen. The call rests on the fitted dose curve; in most records, active means well fitted inhibition curve with a large enough effect; inconclusive means small, poorly fitted or top-dose-only effect, or effect the other way; inactive means flat fitted curve, though single readings scatter. Where the call is inconclusive, the potency comes from a doubtful curve fit.
Potency means the concentration at half of the fitted maximal effect.

Experiment: qHTS screen for small molecules that inhibit ELG1-dependent DNA repair in human embryonic kidney (HEK293T) cells expressing luciferase-tagged ELG1; further: nearly all actives have a fitted effect of over 55% in size
Conditions: HEK293T ELG1-luciferase reporter, luminescence, 16 h, DNA damage induced by 5-fluorouridine; series mostly up to 46.1 µM
Method in brief: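 Quantitative HTS, concentration-response format. 2,000 cells/well co-treated with 5-fluorouridine and compound, 16 hr in 5% CO2 at 37 °C; ONE-Glo luminescence read after 30 min.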
For `CCOc1ccc(NC(=O)Cn2nnc(-c3ccccc3NC(=O)c3cccs3)n2)cc1`, the Potency was “inactive”. In the case of `COCC(C)n1c(SCC(=O)Nc2nccs2)nc2ccccc2c1=O` (configuration not stated), the Potency is reported as inconclusive: 29.1 µM [inhibitor, single point]. With `COc1ccc(OCCN2CCN(C(=O)c3ccc(OC)cc3)CC2)cc1` the Potency was active: 3.26 µM. With `CCCCN(CCCC)CCNC(=O)c1cn(CC)c2ccc(S(=O)(=O)N(C)C3CCCCC3)cc2c1=O` the Potency was “inactive”. In the case of `CC(C)CC(=O)/C(=C\c1ccc(Cl)cc1Cl)n1cncn1`, the Potency is reported as active: 20.6 µM. In the case of `CC(C)c1ccc(S(=O)(=O)/N=C2/C=CC(=O)c3ccccc32)cc1`, the Potency is reported as inconclusive: 29.1 µM [inhibitor, single point]. With `CCOC(=O)N1CCC(N2CCN(S(=O)(=O)c3ccc([N+](=O)[O-])cc3)CC2)CC1` the Potency was inconclusive: 10.3 µM [inhibitor, partial curve, poor fit]. In the case of `c1ccc2c(c1)CC(CN1CCNCC1)O2` (configuration not stated), the Potency is reported as “inactive”. With `O=C(NNC(=O)c1cccnc1)NC1CCCCC1` the Potency was “inactive”. For `Cc1ccc(N2C(=O)CC(Sc3cccs3)C2=O)cc1` (configuration not stated), the Potency was “inactive”. In the case of `O=C(Nc1sc2c(c1C(=O)NCc1ccco1)CCCC2)c1ccc2c(c1)OCO2`, the Potency is reported as inconclusive: 2.06 µM [activator, partial curve]. With `Cc1ccc(NS(=O)(=O)c2ccc(Br)s2)cc1S(=O)(=O)N1CCOCC1` the Potency was “inactive”. In the case of `CCc1cc(C(=O)OC)c(NC(=O)CC2Nc3cc(C)c(C)cc3NC2=O)s1` (configuration not stated), the Potency is reported as inconclusive: 20.6 µM [activator, partial curve, poor fit]. In the case of `CCCN(CC1CC1)C(=S)NC(=O)C1CC1`, the Potency is reported as “inactive”. With `CCOc1ccc(N2C(=O)C(Cl)=C(Nc3ccccc3O)C2=O)cc1` the Potency was inconclusive: 1.16 µM [activator, full curve]. For `c1ccc(-c2ccccc2OCCOCCN2CCc3ccccc3C2)cc1`, the Potency was inconclusive: 25.9 µM [inhibitor, partial curve, poor fit]. With `NS(=O)(=O)c1ccc(CCNC(=O)COC(=O)/C=C/c2ccccc2Cl)cc1` the Potency was inconclusive: 11.6 µM [activator, partial curve, poor fit]. For `Cc1ccc(C(=O)c2c(NC(=O)c3cccnc3)sc3c2CCCC3)cc1`, the Potency was “inactive”. For `Cc1cccc(C)c1NC(=O)c1cn(-c2ccccc2)nc1-c1ccccc1`, the Potency was inconclusive: 9.2 µM [inhibitor, partial curve, poor fit]. For `CCCCOC(=O)N/N=C/C=C/c1ccccc1`, the Potency was inconclusive: 13 µM [activator, partial curve]. For `CCCCn1cnc2c(cnn2-c2ccc(F)cc2)c1=O`, the Potency was inconclusive: 16.4 µM [activator, partial curve]. For `C=C1CC2C3CC[C@@]4(OCOC45COCO5)[C@@]3(C)C(O)CC2[C@@]2(C)CCC(=O)C=C12` (some centres not stated), the Potency was inconclusive: 20.6 µM [inhibitor, single point]. For `Cc1ccc2[nH]c(O)c(N=NC(=O)CCc3ccccc3)c2c1Br`, the Potency was inconclusive: 20.6 µM [activator, partial curve, poor fit]. With `CCOc1nc(NCCc2ccc(OC)c(OC)c2)nc(NC(C)(C)CO)n1` the Potency was inconclusive: 14.6 µM [inhibitor, partial curve]. In the case of `CCOC(=O)c1c(CN2CCN(Cc3ccccc3)CC2)n(C)c2cc(Br)c(OC)cc12`, the Potency is reported as “inactive”. For `CC1CCc2c(sc(NC(=O)CSc3nc4c(c(C(F)(F)F)n3)CCc3ccccc3-4)c2C(N)=O)C1` (configuration not stated), the Potency was inconclusive: 29.1 µM [activator, single point]. With `CCOC(=O)N1CCN(C(=O)c2ccc(NS(=O)(=O)c3ccc(C)cc3)cc2)CC1` the Potency was “inactive”. In the case of `CC(C)CN(C(=O)CN1C(=O)C2CCCCC2C1=O)c1c(N)n(Cc2ccccc2)c(=O)[nH]c1=O` (configuration not stated), the Potency is reported as “inactive”. In the case of `CCN(Cc1ccncc1)C(=O)c1cc(COc2ccc(F)cc2Cl)on1`, the Potency is reported as “inactive”. With `Cc1ccc(OCC(=O)Nc2ccc3c(c2)OCO3)c([N+](=O)[O-])n1` the Potency was inconclusive: 18.4 µM [activator, partial curve]. For `COc1ccc(OC)c(NC(=O)CSc2ncccn2)c1`, the Potency was inconclusive: 18.4 µM [activator, partial curve, poor fit]. With `CC(C)=NNc1nc(-c2ccc(N3C(=O)CCC3=O)cc2)cs1` the Potency was inconclusive: 23.1 µM [inhibitor, single point]. With `CCc1sc(N(C(=O)Cc2ccccc2)c2ccccc2F)nc1-c1ccc(C)cc1` the Potency was “inactive”. In the case of `Cc1cc(C)n(-c2nncc(-c3ccccc3)n2)n1`, the Potency is reported as inconclusive: 0.517 µM [inhibitor, partial curve]. For `COc1ccccc1NC(=S)NC(C)C(c1cccs1)N1CCOCC1` (configuration not stated), the Potency was “inactive”. With `O=C1N(Cc2cccnc2)C[C@@H]2C[C@@H](c3cccc(Oc4ccccc4)c3)N3CCC[C@@]123` the Potency was inconclusive: 16.4 µM [inhibitor, partial curve]. In the case of `CNS(=O)(=O)c1cccc(C(=O)OCC(=O)Nc2sc3c(c2C#N)CCCCC3)c1`, the Potency is reported as inconclusive: 29.1 µM [activator, partial curve, poor fit]. For `COc1ccc(C2=NS(=O)(=O)N(C)C(C(=O)Nc3ccc(OC)c(OC)c3)=C2)cc1`, the Potency was inconclusive: 16.4 µM [inhibitor, single point]. In the case of `CCOc1ccc(C(C)NC(=S)NC2CCCCC2)cc1OCC` (configuration not stated), the Potency is reported as active: 23.1 µM. In the case of `CCN(CC)S(=O)(=O)c1ccc(-c2cn3ccc(C)cc3n2)cc1`, the Potency is reported as inconclusive: 11.2 µM [activator, partial curve]. For `O=C(Nc1ccc2nc(-c3ccccn3)c(-c3ccccn3)nc2c1)N1CCOCC1`, the Potency was “inactive”. With `CC(C)n1c(-c2cccs2)nc2ccccc21` the Potency was inconclusive: 23.1 µM [inhibitor, partial curve]. In the case of `Cn1c(SCCOc2ccc(Cl)cc2)nnc1-c1ccncc1`, the Potency is reported as “inactive”. With `Cc1nn(-c2ccccc2)c(C)c1/C=N/O` the Potency was inconclusive: 10.3 µM [activator, partial curve, poor fit]. With `CCOc1ccccc1NC(=O)C(=O)N/N=C/c1ccc([N+](=O)[O-])cc1` the Potency was “inactive”. For `CCOC(=O)C1C(c2ccc(OC)c(OC)c2)c2c([nH][nH]c2=O)CC1(C)O` (configuration not stated), the Potency was inconclusive: 7.3 µM [inhibitor, partial curve, poor fit]. In the case of `O=C(CN1CCN(S(=O)(=O)c2ccc(Br)cc2)CC1)N/N=C/c1ccc(Cl)c([N+](=O)[O-])c1`, the Potency is reported as inconclusive: 23.1 µM [inhibitor, single point]. In the case of `CC(/C=N/NC(=O)c1n[nH]c2c1CCC2)=C\c1ccccc1`, the Potency is reported as inconclusive: 2.91 µM [activator, full curve]. With `CCOC(=O)C1(Cc2cccc(Cl)c2)CCCN(C(=O)c2c(CC)noc2C)C1` (configuration not stated) the Potency was inconclusive: 0.0146 µM [inhibitor, full curve]. In the case of `CC(=O)c1ccc(NC(=S)Nc2ccc3cn[nH]c3c2)cc1`, the Potency is reported as “inactive”. For `Cc1[nH]c2nc3ccccc3n2c(=O)c1CCC(C)C`, the Potency was “inactive”. For `COC(=O)C(Cc1ccccc1)NC(=O)c1cccc(S(=O)(=O)N(C)C)c1` (configuration not stated), the Potency was inconclusive: 23.1 µM [activator, single point]. With `CCCCOc1ccc(C(=O)C(CN2CCOCC2)c2ccccc2)cc1` (configuration not stated) the Potency was inconclusive: 25.9 µM [inhibitor, partial curve, poor fit]. In the case of `COc1ccc(OC)c(NC(=O)CSc2nc(N3CCOCC3)nc(N3CCOCC3)n2)c1`, the Potency is reported as “inactive”. In the case of `O=C(Nc1ccc(Cl)cc1)Nc1ccc2c(c1)N1CCN=C1S2`, the Potency is reported as active: 23.1 µM. In the case of `CCc1nc(Nc2ccc(F)cc2)c2oc3ccccc3c2n1`, the Potency is reported as “inactive”. With `NC(=O)CN(c1ccc(Oc2ccccc2)cc1)S(=O)(=O)c1ccccc1` the Potency was “inactive”. In the case of `COc1ccc(/C=N\Nc2ccccn2)c(OC)c1`, the Potency is reported as inconclusive: 14.6 µM [activator, partial curve]. For `CCc1ccccc1NC(=O)CNC(=O)c1cn(Cc2ccccc2)nc1-c1cccnc1`, the Potency was “inactive”. In the case of `Cc1sc(Nc2ccc([N+](=O)[O-])cc2)nc1-c1c(C)n(C)n(-c2ccccc2)c1=O`, the Potency is reported as inconclusive: 5.17 µM [inhibitor, partial curve, poor fit]. In the case of `CCc1ccccc1NC(=O)c1ccc([N+](=O)[O-])s1`, the Potency is reported as active: 11.6 µM. In the case of `Cc1[nH]nc2c1C(c1ccccn1)N(c1ccc(Br)cc1)C2=O` (configuration not stated), the Potency is reported as “inactive”. In the case of `c1ccc(-c2n[nH]c3ccccc23)cc1`, the Potency is reported as inconclusive: 25.9 µM [activator, partial curve, poor fit]. For `CC(C)(C)C(=O)O/N=C(\N)c1ccc(-c2csnn2)cc1`, the Potency was inconclusive: 11.6 µM [activator, partial curve]. In the case of `CCCCCCCC(=O)N/N=C(\C)c1ccc(N)cc1`, the Potency is reported as “inactive”. In the case of `CC(=O)N1CCc2cc(S(=O)(=O)NC(CC(C)C)C(=O)Nc3ccc4c(c3)OCCO4)ccc21` (configuration not stated), the Potency is reported as “inactive”. In the case of `CN(Cc1ccc2c(c1)OCCO2)C(=O)CSc1ncnc2sccc12`, the Potency is reported as inconclusive: 25.9 µM [inhibitor, single point]. For `Cc1ccc(C)c(-c2[nH]ncc2CN2CCCC(CO)(Cc3ccccc3C)C2)c1` (configuration not stated), the Potency was “inactive”. With `Cc1c(NC2(C#N)CCCC2)c(=O)n(-c2ccccc2)n1C` the Potency was inconclusive: 0.651 µM [inhibitor, single point]. In the case of `COc1ccc(-c2cc(C(=O)Nc3nc4ccccc4s3)c3ccccc3n2)cc1OC`, the Potency is reported as active: 14.6 µM. For `Cc1ccnc(NC(=O)c2cccc(S(=O)(=O)N3CCN(c4ccccc4)CC3)c2)c1`, the Potency was inconclusive: 2.91 µM [activator, partial curve, poor fit]. For `COc1ccccc1NS(=O)(=O)c1cc(NC(=O)CNC(=O)c2cc(C)cc(C)c2)ccc1C`, the Potency was inconclusive: 25.9 µM [inhibitor, partial curve, poor fit].
